Laboratory results: PubChem BioAssay AID1259405 (NCATS, 2018)
The deposit covers about 50,000 reagents; this is an unselected part. About 4,000 of them (8%) count as active. 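Mouse siRNA library applied to hamster cells; one well for each siRNA.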 The numbers tell different reagents against one gene apart. Reagent sequences are not shown.

Assay: 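Knock-downs that lift recombinant protein yield in hamster ovary cells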 (primary screen)
Cell system: Chinese hamster CHO-K1 ovary cells with stable secreted eGFP expression
Reagents: single siRNA against mouse genes, 0.8 pmol siRNA per well (2 µl of 400 nM stock)
Duration: 3 days
Detection: 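Per-well intracellular GFP measured by laser scanning cytometry, plus viability from ATP luminescence, each relative to plate median of non-targeting control wells, in %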
Reading the numbers: GFP, % of control: higher = more GFP per well, higher productivity; viability (ATP), % of control: higher = more viable cells (more ATP)
Rule for the call: 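Called active when intracellular GFP, relative to negative control, is at or above 120%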

| gene | siRNA no. | GFP, % of control | viability (ATP), % of control | call |
| --- | --- | --- | --- | --- |
| Wrap53 (WD repeat containing, antisense to Trp53) | 1 | 48.7 | 62.6 | inactive |
| Wrap53 (WD repeat containing, antisense to Trp53) | 2 | 82 | 93.5 | inactive |
| Wrap53 (WD repeat containing, antisense to Trp53) | 3 | 129 | 130 | active |
| Lypd11 (Ly6/PLAUR domain containing 11) | 1 | 33.2 | 28.9 | inactive |
| Lypd11 (Ly6/PLAUR domain containing 11) | 2 | 220 | 61.1 | active |
| Lypd11 (Ly6/PLAUR domain containing 11) | 3 | 83.3 | 76.8 | inactive |
| Or52u1 (olfactory receptor family 52 subfamily U member 1) | 1 | 78.1 | 76.1 | inactive |
| Or52u1 (olfactory receptor family 52 subfamily U member 1) | 2 | 53.6 | 63.3 | inactive |
| Or52u1 (olfactory receptor family 52 subfamily U member 1) | 3 | 82.7 | 62.9 | inactive |
| Parvg (parvin, gamma) | 1 | 67.1 | 61 | inactive |
| Parvg (parvin, gamma) | 2 | 66.4 | 72.6 | inactive |
| Parvg (parvin, gamma) | 3 | 70.2 | 53.8 | inactive |
| Tiam1 (T cell lymphoma invasion and metastasis 1) | 1 | 126 | 110 | active |
| Tiam1 (T cell lymphoma invasion and metastasis 1) | 2 | 92.9 | 55.8 | inactive |
| Tiam1 (T cell lymphoma invasion and metastasis 1) | 3 | 94.5 | 59.6 | inactive |
| Simc1 (SUMO-interacting motifs containing 1) | 1 | 73 | 74.9 | inactive |
| Simc1 (SUMO-interacting motifs containing 1) | 2 | 35.9 | 56.8 | inactive |
| Simc1 (SUMO-interacting motifs containing 1) | 3 | 95.9 | 70.7 | inactive |
| Ppp3cb (protein phosphatase 3, catalytic subunit, beta isoform) | 1 | 136 | 63.4 | active |
| Ppp3cb (protein phosphatase 3, catalytic subunit, beta isoform) | 2 | 78.3 | 81.5 | inactive |
| Ppp3cb (protein phosphatase 3, catalytic subunit, beta isoform) | 3 | 94.4 | 99.7 | inactive |
| Pex19 (peroxisomal biogenesis factor 19) | 1 | 74.8 | 49.6 | inactive |
| Pex19 (peroxisomal biogenesis factor 19) | 2 | 54.8 | 47 | inactive |
| Pex19 (peroxisomal biogenesis factor 19) | 3 | 88.4 | 101 | inactive |
| Hcfc2 (host cell factor C2) | 1 | 99.5 | 96.3 | inactive |
| Hcfc2 (host cell factor C2) | 2 | 59.5 | 78.2 | inactive |
| Hcfc2 (host cell factor C2) | 3 | 64.6 | 59.7 | inactive |
| Smpd3 (sphingomyelin phosphodiesterase 3, neutral) | 1 | 59.7 | 54.4 | inactive |
| Smpd3 (sphingomyelin phosphodiesterase 3, neutral) | 2 | 82 | 79.6 | inactive |
| Or2at1 (olfactory receptor family 2 subfamily AT member 1) | 1 | 60 | 84.9 | inactive |
| Or2at1 (olfactory receptor family 2 subfamily AT member 1) | 2 | 102 | 92.1 | inactive |
| Or2at1 (olfactory receptor family 2 subfamily AT member 1) | 3 | 39.7 | 68.9 | inactive |
| Colgalt1 (collagen beta(1-O)galactosyltransferase 1) | 1 | 34.3 | 66.8 | inactive |
| Colgalt1 (collagen beta(1-O)galactosyltransferase 1) | 2 | 274 | 86.9 | active |
| Colgalt1 (collagen beta(1-O)galactosyltransferase 1) | 3 | 66.6 | 86.9 | inactive |
| Crhbp (corticotropin releasing hormone binding protein) | 1 | 74.3 | 54.1 | inactive |
| Crhbp (corticotropin releasing hormone binding protein) | 2 | 75.2 | 77.8 | inactive |
| Khdrbs3 | 1 | 85.3 | 93.6 | inactive |
| Khdrbs3 | 2 | 55.6 | 80.7 | inactive |
| Khdrbs3 | 3 | 55.6 | 90.7 | inactive |
| Fbxl15 (F-box and leucine-rich repeat protein 15) | 1 | 78.3 | 65.6 | inactive |
| Fbxl15 (F-box and leucine-rich repeat protein 15) | 2 | 25.6 | 45.5 | inactive |
| Fbxl15 (F-box and leucine-rich repeat protein 15) | 3 | 48.7 | 42 | inactive |
| Zc3h7a (zinc finger CCCH type containing 7 A) | 1 | 41.6 | 38.2 | inactive |
| Zc3h7a (zinc finger CCCH type containing 7 A) | 2 | 42.5 | 55.4 | inactive |
| Zc3h7a (zinc finger CCCH type containing 7 A) | 3 | 62.2 | 117 | inactive |
| Or4f14b (olfactory receptor family 4 subfamily F member 14B) | 1 | 103 | 96.7 | inactive |
| Or4f14b (olfactory receptor family 4 subfamily F member 14B) | 2 | 62.6 | 57.2 | inactive |
| Or4f14b (olfactory receptor family 4 subfamily F member 14B) | 3 | 97.6 | 83.9 | inactive |
| Olfml1 (olfactomedin-like 1) | 1 | 98.1 | 119 | inactive |
| Olfml1 (olfactomedin-like 1) | 2 | 82.8 | 79.1 | inactive |
| Olfml1 (olfactomedin-like 1) | 3 | 66.9 | 66 | inactive |
| Mif4gd (MIF4G domain containing) | 1 | 82.7 | 88.8 | inactive |
| Mif4gd (MIF4G domain containing) | 2 | 197 | 67.7 | active |
| Mif4gd (MIF4G domain containing) | 3 | 115 | 74.9 | inactive |
| Or10v1 (olfactory receptor family 10 subfamily V member 1) | 1 | 98.4 | 112 | inactive |
| Or10v1 (olfactory receptor family 10 subfamily V member 1) | 2 | 85.8 | 84.1 | inactive |
| Or10v1 (olfactory receptor family 10 subfamily V member 1) | 3 | 130 | 90.2 | active |
| Irf8 (interferon regulatory factor 8) | 1 | 70.6 | 47.6 | inactive |
| Irf8 (interferon regulatory factor 8) | 2 | 68.6 | 62.7 | inactive |
| Irf8 (interferon regulatory factor 8) | 3 | 131 | 118 | active |
| Tsc1 (TSC complex subunit 1) | 1 | 53.9 | 62.5 | inactive |
| Tsc1 (TSC complex subunit 1) | 2 | 53.1 | 74.9 | inactive |
| Tsc1 (TSC complex subunit 1) | 3 | 136 | 114 | active |
| Sycn (syncollin) | 1 | 55 | 79.1 | inactive |
| Sycn (syncollin) | 2 | 101 | 122 | inactive |
| Sycn (syncollin) | 3 | 121 | 107 | active |
| Ube2f (ubiquitin-conjugating enzyme E2F (putative)) | 1 | 39.3 | 44.1 | inactive |
| Ube2f (ubiquitin-conjugating enzyme E2F (putative)) | 2 | 113 | 101 | inactive |
| Ube2f (ubiquitin-conjugating enzyme E2F (putative)) | 3 | 110 | 107 | inactive |
| Prss58 (serine protease 58) | 1 | 73.5 | 93.9 | inactive |
| Prss58 (serine protease 58) | 2 | 51.4 | 57.5 | inactive |
| Prss58 (serine protease 58) | 3 | 84.8 | 99.1 | inactive |
| Tmprss5 (transmembrane protease, serine 5 (spinesin)) | 1 | 81.6 | 56.1 | inactive |
| Tmprss5 (transmembrane protease, serine 5 (spinesin)) | 2 | 62.5 | 46.7 | inactive |
| Tmprss5 (transmembrane protease, serine 5 (spinesin)) | 3 | 72.7 | 76.9 | inactive |
| Aplf (aprataxin and PNKP like factor) | 1 | 124 | 50.6 | active |
| Aplf (aprataxin and PNKP like factor) | 2 | 81.8 | 100 | inactive |
| Aplf (aprataxin and PNKP like factor) | 3 | 71.8 | 80.6 | inactive |
| Slc6a17 | 1 | 84 | 93.7 | inactive |
| Slc6a17 | 2 | 90.9 | 102 | inactive |
| Slc6a17 | 3 | 127 | 70.6 | active |
| Chd1 (chromodomain helicase DNA binding protein 1) | 1 | 83.8 | 102 | inactive |
| Chd1 (chromodomain helicase DNA binding protein 1) | 2 | 60.4 | 66.7 | inactive |
| Chd1 (chromodomain helicase DNA binding protein 1) | 3 | 96.7 | 61.1 | inactive |
| Eaf1 (ELL associated factor 1) | 1 | 84.8 | 94.4 | inactive |
| Eaf1 (ELL associated factor 1) | 2 | 75 | 65.5 | inactive |
| Kcnj1 (potassium inwardly-rectifying channel, subfamily J, member 1) | 1 | 112 | 91.4 | inactive |
| Kcnj1 (potassium inwardly-rectifying channel, subfamily J, member 1) | 2 | 67.2 | 79.1 | inactive |
| Kcnj1 (potassium inwardly-rectifying channel, subfamily J, member 1) | 3 | 73.8 | 88.4 | inactive |
| Ifnar2 (interferon (alpha and beta) receptor 2) | 1 | 55.7 | 58.6 | inactive |
| Ifnar2 (interferon (alpha and beta) receptor 2) | 2 | 74.7 | 65.4 | inactive |
| Ifnar2 (interferon (alpha and beta) receptor 2) | 3 | 53.4 | 94.3 | inactive |
| Myh1 (myosin, heavy polypeptide 1, skeletal muscle, adult) | 1 | 84.3 | 70.5 | inactive |
| Myh1 (myosin, heavy polypeptide 1, skeletal muscle, adult) | 2 | 60.6 | 74.7 | inactive |
| Atxn10 (ataxin 10) | 1 | 93.2 | 104 | inactive |
| Atxn10 (ataxin 10) | 2 | 50.9 | 81.9 | inactive |
| Atxn10 (ataxin 10) | 3 | 51.4 | 85.2 | inactive |
| Anxa13 (annexin A13) | 1 | 89.9 | 90.6 | inactive |
| Anxa13 (annexin A13) | 2 | 64.8 | 45.8 | inactive |
| Anxa13 (annexin A13) | 3 | 54.4 | 64.8 | inactive |
| Rab7b (RAB7B, member RAS oncogene family) | 1 | 63.2 | 47.5 | inactive |
| Rab7b (RAB7B, member RAS oncogene family) | 2 | 50 | 71.2 | inactive |
| Rab7b (RAB7B, member RAS oncogene family) | 3 | 84.1 | 65.9 | inactive |
| Psmd2 (proteasome (prosome, macropain) 26S subunit, non-ATPase, 2) | 1 | 21.6 | 11.8 | inactive |
| Psmd2 (proteasome (prosome, macropain) 26S subunit, non-ATPase, 2) | 2 | 29.5 | 22.2 | inactive |
| Il1b (interleukin 1 beta) | 1 | 133 | 130 | active |
| Il1b (interleukin 1 beta) | 2 | 98.7 | 74.3 | inactive |
